According to PubChem BioAssay AID485298 (National Center for Advancing Translational Sciences (NCATS), 2010):
In all, about 320,000 compounds went through this assay and about 740 (0.23%) were called active. The shares of active, inactive and inconclusive entries below differ from those in the screen. Calls follow the shape of the dose curve; as a rule, active = well fitted activation curve with a large enough effect; inconclusive = small, poorly fitted or top-dose-only effect; inactive = no such curve, though single readings can be large or run the other way. Where the call is inconclusive, the potency comes from a doubtful curve fit.
Potency is read from the fitted curve at half-maximal effect.

Assay: qHTS Assay for Small Molecule Inhibitors of Mitochondrial Division or Activators of Mitochondrial Fusion; also: nearly all actives have a fitted effect of over 45% in size;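 as to growth rescue (activation): temperature-sensitive fusion mutants such as fzo1-1 at 37 °C on non-fermentable ethanol glycerol medium; % of control where 0% means no effect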
Details: S. cerevisiae fusion-defective mutant growth rescue, CellTiterGlo 48 h; growth rescue (activation): at 46.1 µM (top of the series) unless noted
In short: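 Read-out: ATP-based luminescence (CellTiterGlo, 10 min ambient) reporting growth of fusion-defective ts yeast after 48 hours at 37C on glycerol/ethanol YPEG medium in the presence of compound.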
With `O=C(NCCc1ccccc1)N1c2ccccc2Sc2ccccc21` the Potency was inconclusive: 17.8 µM [activator, partial curve]. With `C/C(=N\Nc1nc(C)cc(-c2ccccc2)n1)c1cccc(N)c1` the “growth rescue (activation)” value was inactive: -14.7%. For `O=S(=O)(Nc1cccc2c1CCCC2)c1ccc(Cl)cc1`, the Potency was inconclusive: 20 µM [activator, single point]. With `Cc1ccccc1Cn1c(-c2cncs2)nc2ccccc21` the Potency was inconclusive: 5.62 µM [activator, full curve]. In the case of `CC(C)CC(=O)/C(=C/c1ccc(N(C)C)cc1)n1cncn1`, the “growth rescue (activation)” value is reported as inactive: 2.47%. With `COc1ccc([C@H]2CC(=O)C=C(c3ccc4c(c3)OCCO4)C2)cc1` the Potency was inconclusive: 11.2 µM [activator, single point]. With `O=C(Cc1ccc([N+](=O)[O-])cc1)N1CCc2ccccc2C1` the Potency was inconclusive: 35.5 µM [activator, single point]. In the case of `COc1cccc(C(=O)Nc2ccc(N3CCN(C(=O)c4cccs4)CC3)cc2)c1`, the “growth rescue (activation)” value is reported as inactive: 3.65%. With `O=C(Oc1cccc(C(=S)N2CCOCC2)c1)c1cccc([N+](=O)[O-])c1` the Potency was inconclusive: 5.62 µM [activator, partial curve]. In the case of `Cc1ccc(C(=O)CSc2nc(C(C)C)nc3ccccc23)cc1`, the Potency is reported as inconclusive: 11.2 µM [activator, partial curve]. With `O=C(Nc1sc2c(c1C(=O)NCC1CCCO1)CCCC2)c1cccs1` (stereo not given) the Potency was inconclusive: 6.31 µM [activator, partial curve]. With `CC(C)Cc1nc(N2CCOCC2)c(C#N)c2c1COC(C)(C)C2` the “growth rescue (activation)” value was inactive: 1.73%. In the case of `O=C(Nc1ccccc1Oc1ccccc1)c1ccccc1F`, the “growth rescue (activation)” value is reported as inactive: 25.9%. In the case of `CC1=CC(C)(C)N2C(=O)C3(C(C#N)=C(N)Oc4cc(O)ccc43)c3c(C)c(C)cc1c32` (stereo not given), the “growth rescue (activation)” value is reported as inactive: 6.08%. For `CCC(=O)Nc1ccc(-c2ccc(N3CCC(C)CC3)nn2)cc1`, the Potency was inconclusive: 11.2 µM [activator, partial curve]. For `Cc1cc(C)cc(Oc2coc3cc(OC(=O)c4cccnc4)ccc3c2=O)c1`, the Potency was inconclusive: 11.2 µM [activator, partial curve]. In the case of `Cc1ccc(S(=O)(=O)NCCC2=CCCCC2)cc1`, the Potency is reported as inconclusive: 12.6 µM [activator, single point]. In the case of `CC(C)(C)c1ccc(S(=O)(=O)N2CCC(c3nc4ccc(Cl)cc4[nH]3)CC2)cc1`, the Potency is reported as inconclusive: 12.6 µM [activator, partial curve]. With `Cc1c(C(=O)Nc2ccc3c(c2)OCCO3)sc2nc(-c3ccccc3)cn12` the Potency was inconclusive: 22.4 µM [activator, single point]. In the case of `COc1ccc(OC)c(-c2csc(NC(=O)Cc3ccccc3OC)n2)c1`, the “growth rescue (activation)” value is reported as inactive: 27.9%. With `CC(CNC(=O)CCn1c(=O)c2cccn2c2ccc(F)cc21)c1ccccc1` (stereo not given) the Potency was inconclusive: 11.2 µM [activator, partial curve, poor fit]. With `O=C(CCNNC(=O)c1ccncc1)NCc1ccccc1` the Potency was inconclusive: 20.6 µM [activator, single point]. In the case of `O=C(Nc1sc2c(c1C(=O)NCCO)CCCC2)c1ccco1`, the Potency is reported as inconclusive: 11.2 µM [activator, partial curve]. With `CCCn1c(=O)c2[nH]c(C3CCCC3)nc2n(CCC)c1=O` the Potency was inconclusive: 14.6 µM [activator, partial curve]. In the case of `Fc1ccc(/C=N/NC(=S)Nc2cccnc2)cc1F`, the “growth rescue (activation)” value is reported as inactive: -2.74%. In the case of `c1ccc(C(c2nnnn2Cc2ccco2)N2CCN(c3nc4ccccc4s3)CC2)cc1` (stereo not given), the Potency is reported as inconclusive: 8.91 µM [activator, partial curve]. For `N#Cc1nc(Cc2ccccc2)oc1NCc1cccnc1`, the “growth rescue (activation)” value was inactive: 0.0064%. In the case of `O=C(N/N=C\c1ccc(Cl)s1)C1COc2ccccc2O1` (stereo not given), the “growth rescue (activation)” value is reported as inactive: 1%. For `Cc1ccc(NC(=O)CSc2ncnc3ccccc23)cc1S(=O)(=O)N1CCCCC1`, the Potency was inconclusive: 11.2 µM [activator, partial curve]. In the case of `O=C(N/C(=C\c1ccc(F)cc1)C(=O)N1CCCCCC1)c1ccccc1`, the Potency is reported as inconclusive: 14.1 µM [activator, partial curve]. In the case of `O=C(CC12CC3CC(CC(C3)C1)C2)N/N=C/c1ccc([N+](=O)[O-])o1`, the Potency is reported as inconclusive: 14.1 µM [activator, partial curve]. In the case of `CCOc1c(C)cnc2c1c(=O)n(Cc1cccc(Cl)c1)c(=O)n2C`, the Potency is reported as inconclusive: 6.31 µM [activator, full curve, poor fit]. With `COc1ccc(NC(=O)c2ccc(-c3ccc([N+](=O)[O-])cc3)o2)cc1OC` the Potency was inconclusive: 15.8 µM [activator, single point]. In the case of `Cc1c(Cl)cccc1NC(=S)N=Nc1c(O)n(CN2CCOCC2)c2ccccc12`, the Potency is reported as inconclusive: 31.6 µM [activator, single point]. With `O=C(c1cnc(Cl)c(Cl)c1)N1CCC(Cc2ccccc2)CC1` the “growth rescue (activation)” value was inactive: -6.26%. With `O=C(NCc1ccco1)c1ccccc1Nc1ccc(F)cc1` the Potency was inconclusive: 20 µM [activator, single point]. In the case of `O=C(c1ccc(N2CCOCC2)cc1)N1CCCC(Nc2ccccc2)C1` (stereo not given), the “growth rescue (activation)” value is reported as inactive: 8.97%. In the case of `Cc1cc2ncc(-c3ccccc3)nc2cc1C`, the “growth rescue (activation)” value is reported as inactive: -18.1%. In the case of `Cc1[nH][nH]c(=O)c1C=NCc1cccs1`, the Potency is reported as inconclusive: 35.5 µM [activator, single point]. For `Cc1cccc(N(Cc2ccccc2)C(=O)CN2C(=O)NC3(CCCC3)C2=O)c1`, the “growth rescue (activation)” value was inactive: 1.33%. In the case of `Cc1ccc(-c2noc(CCCC(=O)NC3CCCCC3)n2)cc1`, the Potency is reported as inconclusive: 10 µM [activator, partial curve]. For `CCS(=O)(=O)c1ccc2oc(SCC(=O)NC3CCCC(C)C3C)nc2c1` (stereo not given), the Potency was inconclusive: 20 µM [activator, partial curve]. For `O=C(NCc1ccco1)C1CCN(C(=O)c2cc3sccc3n2Cc2ccc(Cl)cc2)CC1`, the “growth rescue (activation)” value was inactive: -9.53%. For `COc1ccc(OCC(=O)NCCC2=CCCCC2)c([N+](=O)[O-])c1`, the Potency was inconclusive: 35.5 µM [activator, single point]. In the case of `O=C(C1CCCN1S(=O)(=O)c1ccc(Br)cc1)N1CCOCC1` (stereo not given), the Potency is reported as inconclusive: 0.501 µM [activator, partial curve, poor fit].
